# Data published in PubChem BioAssay AID1259415 (National Center for Advancing Translational Sciences (NCATS), 2018).
# Among all 410,000 compounds or so, about 18,000 (4.4%) were called active. Inconclusive results, whose numbers are uncertain, are shown with a selection of clear calls. No stated cut-off is given here; in the data, active means activity change below about -60%; inconclusive means no clear call, values can overlap the other calls; inactive means above about -39%. A structure can be active in one record and inactive in another.
# Experiment: qHTS Assay for inhibitors of the human cytomegalovirus (HCMV)
# Settings: HFF cells, HCMV-luciferase reporter, 72 h; at 57.5 µM; hits give low values
# How it was run: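 HFF cells seeded 16 h at 37C, treated with compounds, infected with luciferase-reporter HCMV at MOI 1 PFU/cell; luciferase read at 72 h post infection, normalized to buffer-only and Salinomycin controls.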
# On the % scale 0 is the no-effect control and ±100 the full control effect.
row,SMILES,"activity change, negative = inhibition"
1,CN(C)c1ccc(/C=N/NC(=O)c2ccc(CN3CCOCC3)cc2)cc1Br,inconclusive: -57.9%
2,CC(C)Cc1ccc(C(C)C(=O)Nc2ncccn2)cc1 (centres undefined),inactive: -31.3%
3,Cc1ccc(S(=O)(=O)N(Cc2ccc(Cl)cc2)c2ccccc2C(=O)NCc2ccco2)cc1,inconclusive: -50.2%
4,CC(C)Oc1cccc(C(=O)C2CCCN(Cc3cccn3-c3ccccn3)C2)c1 (centres undefined),active: -71%
5,Cc1ccccc1-n1c(C)c(C#N)c(=O)c(-[n+]2ccccc2)c1[S-],inconclusive: -40.1%
6,COc1ccccc1NS(=O)(=O)c1cccc(C(=O)N2CCN(Cc3ccc4c(c3)OCO4)CC2)c1,inactive: 40.7%
7,CCN(CC)CCn1c2c(c(SCC(=O)Nc3ccc4c(c3)OCO4)nc1=O)CCC2,inconclusive: -41.7%
8,COc1ccc(OC)c2c(C)cc(N3CCCCCC3)nc12,inactive: -27.2%
9,CCOc1ccc(CNC(=O)C2CCN(C(=O)N3CC(CC)Oc4ccc(C)cc43)CC2)cc1OC (centres undefined),inactive: -21.7%
10,O=C(NCc1ccccc1)C1=C[C@@H](c2csc3ccccc23)C[C@@H](OCc2ccc(CO)cc2)O1,active: -97.9%
11,O=C(CCCN1C(=O)/C(=C/c2ccccc2Cl)SC1=S)NNC(=O)c1ccccc1,inconclusive: -57.1%
12,CNC(=O)c1cc(S(=O)(=O)NCc2ccncc2)ccc1OC,inconclusive: -47.1%
13,CCN(CC)C(=O)C1=C(C)N(Cc2ccc(C(C)(C)C)cc2)C(=O)C(CC(=O)NC2CCCC2)C1 (centres undefined),inactive: 38.9%
14,CCCNC(=O)C1(C)CCCN(Cc2cccn2C)C1 (centres undefined),inconclusive: -44.2%
15,NC(=S)NC(=O)/C=C/c1ccccc1,active: -67.1%
16,O=C(c1ccc2nc(-c3ccco3)c(-c3ccco3)nc2c1)N1CCN(c2ccccc2)CC1,active: -108%
17,Cc1ccc(C(=O)N2CCN(c3ccc(NC(=S)NC(=O)Cc4ccccc4)cc3)CC2)cc1,inactive: -27.8%
18,CC1CCN(c2nc3c(c(=O)[nH]c(=O)n3C)n2CCCc2ccccc2)CC1,inconclusive: -45%
19,COc1ccc2oc(-c3ccc(NC(=O)c4ccc(Cl)cc4Cl)cc3)nc2c1,inconclusive: -53.7%
20,CCc1[nH]nc(C(=O)NC2CCCc3c2cnn3-c2cc(C)cc(C)c2)c1C (centres undefined),inconclusive: -46.6%
21,CN1C(=O)/C(=C/c2ccc(N3CCCCCC3)o2)C(=O)NC1=S,inactive: -1.59%

row,SMILES,"activity change, negative = inhibition"
1,O=C1/C(=C/c2ccccc2Cl)SC(=S)N1CCCC(=O)N(CCO)c1ccccc1,active: -90.8%
2,COc1ccc(NC(=O)N2CCC3(CC2)OCCO3)c(OC)c1,inconclusive: -51.8%
3,CCc1ccc(Sc2cc(C(=O)NCCCN3CCC(C)CC3)c3ccccc3n2)cc1,active: -77.1%
4,COc1ccc(C(=O)Sc2ccc(Cl)cc2)cc1OC,inactive: 21.4%
5,COc1ccccc1CNC(=O)CCCCn1c(=O)c2ccccc2n(CC(=O)Nc2cccc(Cl)c2)c1=O,inconclusive: -49.4%
6,O=C1C(Cc2ccccc2)Nc2ncnc(N3CCOCC3)c2N1Cc1ccccc1 (centres undefined),active: -101%
7,Cc1ccccc1OCCn1cc(/C(N)=N/O)c2ccccc21,inactive: -13.8%
8,CCOc1ccc(-c2n[nH]c(C)c2Oc2ccc(OC)cc2)c(O)c1,inactive: -17.7%
9,Cc1ccc(-c2csc3ncnc(-n4nnc5ccccc54)c23)cc1,inconclusive: -44.5%
10,Cc1ccc2c(c1)C1CN(C)CCC1N2C(=S)Nc1ccc(OC(F)F)cc1 (centres undefined),inconclusive: -49.5%
11,Oc1ccc(Cl)cc1CNc1nccs1,inconclusive: -40.6%
12,Cc1c(Br)c([N+](=O)[O-])nn1CC(=O)Nc1c(C)n(C)n(-c2ccccc2)c1=O,active: -102%
13,Cc1cc(NC(=O)CSc2nc3ccccc3c(=O)n2C(C)c2ccccc2)no1 (centres undefined),inconclusive: -49.1%
14,O=C(/C=C/c1cccc([N+](=O)[O-])c1)N1CCN(Cc2ccc3c(c2)OCO3)CC1,inconclusive: -40.6%
15,Cc1ccc(C)c(NC(=O)c2nc(-c3ccccc3)n(-c3ccccc3)n2)c1,inactive: -22.4%
16,CC1CCCCN1C(=O)c1ccccc1NC(=O)c1ccco1 (centres undefined),inactive: 38.4%
17,Cc1cc(NC(=O)C(C)SCC(=O)OCc2ccc(Cl)cc2Cl)no1 (centres undefined),inactive: -13.8%
18,COc1cccc(NC(=O)N(Cc2cn(C)c3ccccc23)C2CCCCCC2)c1,active: -105%
19,COc1ccc(N2CCN(C(=O)c3ccc4c(=O)n(Cc5ccc6c(c5)OCO6)c(=O)[nH]c4c3)CC2)cc1,inconclusive: -46.9%
20,N#CCC(=O)Nc1ccc(C(=O)OCC(=O)Nc2cc(-c3ccccc3)nn2-c2ccccc2)cc1,inconclusive: -42%
21,COc1ccc(-n2c(SCC(=O)Nc3ccccc3)nnc2-c2ccoc2C)cc1,inconclusive: -49.8%

row,SMILES,"activity change, negative = inhibition"
1,N=c1ccn(Cc2ccc(Cl)c(Cl)c2)cc1,active: -97.1%
2,CCOC(=O)c1ccc2c(c1)N(Cc1ccc(F)cc1Cl)C(=O)c1ccccc1S2,inconclusive: -43.9%
3,OC(c1ccc(Cl)cc1)c1ncc(-c2cccc(C(F)(F)F)c2)[nH]1 (centres undefined),inconclusive: -48.6%
4,O=C(COC(=O)c1cc(S(=O)(=O)N2CCOCC2)ccc1F)c1ccccc1,inactive: 96.6%
5,O=C(c1ccc(NC(=O)C2(c3ccccc3)CCCC2)cc1)N1CCOCC1,inconclusive: -42.1%
6,C/C(=N/NC(=O)c1sc(=S)n(C)c1C)c1ccccc1,inconclusive: -47%
7,O=C(NC(Cc1c[nH]c2ccccc12)C(=O)Nc1ccc(F)c([N+](=O)[O-])c1)c1cccs1 (centres undefined),active: -87.5%
8,CCOC(=O)c1sc2ccc(S(=O)(=O)N3CCOCC3)cc2c1N,active: -61.6%
9,Cc1cc(OC(C)C(=O)NCc2ccccn2)c2c(C)cc(=O)oc2c1 (centres undefined),inactive: -4.74%
10,CCC1(CC)Cc2ccccc2-c2nc3ccccc3c(=O)n21,inconclusive: -42.5%
11,Cc1cc(SCC(=O)c2cccs2)nc2c(C)cccc12,inactive: 4.24%
12,Cc1ccc(OCC(=O)N2CCc3ccccc3C2)c(Br)c1,inconclusive: -47.9%
13,CC(C)[C@H](NC(=O)c1ccccc1)C(=O)OCC(=O)N1CC2(C)CC1CC(C)(C)C2 (some centres undefined),inconclusive: -58.1%
14,CCOC(=O)c1ccc(-c2ccc(/C=N/NC(=O)CN(c3ccccc3Cl)S(C)(=O)=O)o2)cc1,inactive: -35.5%
15,CCC(C)(C)NC(=O)Cc1ccc(Cl)cc1,inconclusive: -41.5%
16,Cc1cccc(N(C(=O)c2snc(C(N)=O)c2N)C(C(=O)NCC2CCCO2)c2ccc(N(C)C)cc2)c1 (centres undefined),inconclusive: -42.3%
17,CCCN(C(=O)CCOc1ccc(C(C)(C)C)cc1)c1c(N)n(Cc2ccccc2)c(=O)[nH]c1=O,inactive: -18.4%
18,Cc1ccccc1Nc1c(-c2ccc(Cl)cc2)nc2c(C)cccn12,inactive: 0.484%
19,COc1ccc(NC(=O)Cn2c(=O)n(CCc3ccccc3)c(=O)c3c4c(sc32)CCCC4)cc1,inactive: -13.1%
20,O/N=C(\C[n+]1ccccc1)c1ccc(Br)cc1,inconclusive: -50.5%
21,O=c1[nH]c(CSc2nnnn2-c2ccc(Cl)cc2)nc2ccccc12,inconclusive: -59.9%

row,SMILES,"activity change, negative = inhibition"
1,COc1ccc(/C=C2\SC(=S)N(CCCCCC(=O)Nc3cc(C)on3)C2=O)cc1OC,inconclusive: -53.7%
2,Cc1nn(Cc2c(F)c(F)c(F)c(F)c2F)c(C)c1NC(=O)c1c([N+](=O)[O-])cnn1C,inconclusive: -55.3%
3,COc1ccc(CSCC(=O)Nc2ccccc2SC)cc1,inconclusive: -47.9%
4,Cc1ccc(Sc2c(CO)c(-c3ccccc3)nn2C)cc1,active: -83.4%
5,COc1ccc(NC(=S)Nc2cccc3cnccc23)cc1,inconclusive: -41.8%
6,COC(=O)/C(=N/Nc1ccc(C)cc1)N1CCCc2ccccc21,inconclusive: -41.6%
7,COCCN(C(=O)CSc1nc2ccccc2c(=O)n1C(C)COC)c1c(N)n(Cc2ccccc2)c(=O)[nH]c1=O (centres undefined),inconclusive: -46.2%
8,CC(C)c1nc2sc3c(c2c(=O)n1N)CC(C)(C)OC3,inactive: -18.9%
9,O=c1ccn(-c2cccc(C(F)(F)F)c2)nc1-c1ccn(-c2cccc(Cl)c2)n1,inconclusive: -40.1%
10,Cc1csc(CN(C)C(=O)CC2C(=O)NCCN2CC(C)(C)C)n1 (centres undefined),inconclusive: -52.3%
11,Cc1cccc(-n2c(/C=C/c3ccc([N+](=O)[O-])o3)nc3ccccc3c2=O)c1,active: -104%
12,CCN(CC)S(=O)(=O)c1ccc(C(=O)C(C#N)c2ccccn2)cc1 (centres undefined),inconclusive: -55.4%
13,COc1ccccc1NS(=O)(=O)c1cc(C(=O)NCCN2CCOCC2)ccc1Cl,inactive: 1.51%
14,CCCC(=O)Nc1cccc(NC(=O)c2ccc([N+](=O)[O-])cc2Cl)c1,inconclusive: -60%
15,O=C(CCCN1C(=O)/C(=C/c2cccs2)SC1=S)NNC(=O)c1ccccc1O,inconclusive: -51.7%
16,CCC1CCCCN1C(=O)CSc1nc(N)cc(N)n1 (centres undefined),active: -65.2%
17,Cc1cc(C)n(-c2ccc(C(=O)Nc3ccc(C)c(S(=O)(=O)N4CCOCC4)c3)cc2)n1,active: -83.5%
18,CCC(C)c1ccccc1NC(=O)c1cc2cccc([N+](=O)[O-])c2[nH]1 (centres undefined),inconclusive: -50.7%
19,Cc1ccc(-c2csc3nc[nH]c(=S)c23)cc1C,inconclusive: -47.2%
20,O=C(CCc1ccc(S(=O)(=O)NC2CCCCC2)cc1)N(Cc1ccccc1)Cc1ccccc1,inconclusive: -49.5%
21,C=C(C)c1cccc(C(C)(C)NC(=O)Nc2nnc(C(C)C)s2)c1,active: -101%
